Measured values: PubChem BioAssay AID330 (DTP/NCI, 2004)
The list shows only some results of the screen, not a fair sample: it is rich in T/C values a quarter to a half above the control, in often repeated tests (any T/C) and in doses without a T/C. Further doses and runs are listed elsewhere. T/C gives the treated animals as a percentage of the vehicle group. Some entries give survivors of the animals treated and no T/C: the source files T/C as zero there, which appears to mark a toxic dose or a test without result, not a measured value. Some survivor counts are full or nearly so, which does not show that the dose was tolerated: survival well below the control is almost never listed, so the zero probably covers shortened survival too. Survivors were counted at the toxicity check, usually on the fifth day, unless a day is given; later deaths do not show. Schedules are NCI's codes, taken here to give the interval after Q, in days (D) or hours (H), and the number of doses after X. Signs of the kind (2×) count equal records among those shown. Some doses were run more than once; the results are listed from low to high. Where survival is the endpoint, this PubChem deposit counts one and a half times the control or more as active, and values a quarter to a half above the control carry no call in these data; other NCI protocols may use other cut-offs. Some T/C values carry the count of animals alive at the toxicity check (mostly the fifth day); where none is given, no animal had died by that day.

Tested on: P388 leukemia ip, CD2F1 mice, survival T/C
Experiment: NCI In Vivo Anticancer Drug Screen. Data for tumor model P388 Leukemia (intraperitoneal) in CD2F1 (CDF1) mice
Details: T/C endpoint: median survival time, higher T/C = longer survival
[1] = dose: 4.17 mg/kg/injection, schedule: Q03HX015 (ip), vehicle: DMSO
[2] = dose: 8.34 mg/kg/injection, schedule: Q03HX015 (ip), vehicle: DMSO
[3] = dose: 16.67 mg/kg/injection, schedule: Q03HX015 (ip), vehicle: DMSO
[4] = dose: 16.67 mg/kg/injection, schedule: Q03HX015 (ip), vehicle: Klucel (hydroxypropylcellulose) (HPC)
[5] = dose: 16.67 mg/kg/injection, schedule: Q03HX015 (ip), vehicle: alcohol
[6] = dose: 16.67 mg/kg/injection, schedule: Q03HX015 (ip), vehicle: other
[7] = dose: 16.67 mg/kg/injection, schedule: Q03HX015 (ip), vehicle: saline with Tween-80
[8] = dose: 25.0 mg/kg/injection, schedule: Q01DX005 (ip), vehicle: alcohol
[9] = dose: 33.33 mg/kg/injection, schedule: Q03HX015 (ip), vehicle: alcohol
[10] = dose: 33.33 mg/kg/injection, schedule: Q03HX015 (ip), vehicle: other
[11] = dose: 33.33 mg/kg/injection, schedule: Q03HX015 (ip), vehicle: saline with Tween-80
[12] = dose: 50.0 mg/kg/injection, schedule: Q01DX005 (ip), vehicle: alcohol
[13] = dose: 50.0 mg/kg/injection, schedule: Q01DX005 (ip), vehicle: other
[14] = dose: 100.0 mg/kg/injection, schedule: Q01DX005 (ip), vehicle: saline with Tween-80

N=C(N)c1ccc(N=NNc2ccc(C(=N)N)cc2)cc1
T/C (dose: 1.05 mg/kg/injection, schedule: Q03HX015 (ip), vehicle: DMSO): 98, 103, 115 [4 of 6 alive] (2×), 120 % of control [5 of 6 alive]
T/C (dose: 1.05 mg/kg/injection, schedule: Q03HX015 (ip), vehicle: Klucel (hydroxypropylcellulose) (HPC)): 93, 94, 106 (2×), 108 % of control
T/C (dose: 1.05 mg/kg/injection, schedule: Q03HX015 (ip), vehicle: alcohol): 91 (2×), 93, 102 (2×), 110 % of control
T/C (dose: 1.05 mg/kg/injection, schedule: Q03HX015 (ip), vehicle: other): 93 [5 of 6 alive], 97, 99, 100 % of control (2×)
T/C (dose: 1.05 mg/kg/injection, schedule: Q03HX015 (ip), vehicle: saline with Tween-80): 101, 103, 104, 105 % of control (2×)
T/C (dose: 2.09 mg/kg/injection, schedule: Q03HX015 (ip), vehicle: DMSO): 99, 104, 112 [5 of 6 alive] (2×), 120 % of control [5 of 6 alive]
T/C (dose: 2.09 mg/kg/injection, schedule: Q03HX015 (ip), vehicle: Klucel (hydroxypropylcellulose) (HPC)): 93, 98, 100, 105 % of control (2×)
T/C (dose: 2.09 mg/kg/injection, schedule: Q03HX015 (ip), vehicle: alcohol): 92 (2×), 94, 108 (2×), 111 % of control
T/C (dose: 2.09 mg/kg/injection, schedule: Q03HX015 (ip), vehicle: other): 98, 100, 102, 105 % of control [5 of 6 alive] (2×)
T/C (dose: 2.09 mg/kg/injection, schedule: Q03HX015 (ip), vehicle: saline with Tween-80): 103 (2×), 107, 108 % of control (2×)
T/C [1]: 100 and 108 % of control
survivor count [1]: 2 of 6 and 3 of 6
T/C (dose: 4.17 mg/kg/injection, schedule: Q03HX015 (ip), vehicle: Klucel (hydroxypropylcellulose) (HPC)): 91, 94, 100 (2×), 104 % of control
T/C (dose: 4.17 mg/kg/injection, schedule: Q03HX015 (ip), vehicle: alcohol): 97 (2×), 100, 101, 102 % of control [5 of 6 alive] (2×)
T/C (dose: 4.17 mg/kg/injection, schedule: Q03HX015 (ip), vehicle: other): 101, 103 [5 of 6 alive] (2×), 107, 108 % of control
T/C (dose: 4.17 mg/kg/injection, schedule: Q03HX015 (ip), vehicle: saline with Tween-80): 100, 106, 107, 108 % of control (2×)
T/C [2]: 101 [5 of 6 alive] and 107 % of control
survivor count [2]: 0 of 6 and 2 of 6
T/C (dose: 8.34 mg/kg/injection, schedule: Q03HX015 (ip), vehicle: Klucel (hydroxypropylcellulose) (HPC)): 93, 100, 103, 108 % of control (2×)
T/C (dose: 8.34 mg/kg/injection, schedule: Q03HX015 (ip), vehicle: alcohol): 97 (2×), 100, 108, 112 % of control (2×)
T/C (dose: 8.34 mg/kg/injection, schedule: Q03HX015 (ip), vehicle: other): 100, 102, 104, 113 % of control (2×)
T/C (dose: 8.34 mg/kg/injection, schedule: Q03HX015 (ip), vehicle: saline with Tween-80): 100, 107, 109, 112 % of control (2×)
T/C (dose: 12.5 mg/kg/injection, schedule: Q01DX005 (ip), vehicle: saline with Tween-80): 148 % of control
T/C [3]: 113 % of control
survivor count [3]: 0 of 6
T/C [4]: 88 [5 of 6 alive], 101, 114 % of control (2×)
survivor count [4]: 5 of 6
T/C [5]: 99 [5 of 6 alive] (2×), 110, 117 % of control [5 of 6 alive]
survivor count [5]: 4 of 6
T/C [6]: 92 [5 of 6 alive], 108 (2×), 109 % of control
survivor count [6]: 2 of 6
T/C [7]: 90 [4 of 6 alive], 107, 112 % of control (2×)
survivor count [7]: 5 of 6
T/C (dose: 25.0 mg/kg/injection, schedule: Q01DX005 (ip), vehicle: DMSO, evaluated on day 20): 98 % of control
T/C (dose: 25.0 mg/kg/injection, schedule: Q01DX005 (ip), vehicle: DMSO, evaluated on day 30): 95, 98, 110 [5 of 6 alive], 114 % of control
T/C (dose: 25.0 mg/kg/injection, schedule: Q01DX005 (ip), vehicle: Klucel (hydroxypropylcellulose) (HPC), evaluated on day 20): 92 % of control
T/C (dose: 25.0 mg/kg/injection, schedule: Q01DX005 (ip), vehicle: Klucel (hydroxypropylcellulose) (HPC), evaluated on day 30): 97 (2×), 101, 102 % of control
T/C [8]: 87, 92, 93, 98 % of control
survivor count [8]: 5 of 6
T/C (dose: 25.0 mg/kg/injection, schedule: Q01DX005 (ip), vehicle: other, evaluated on day 20): 91 % of control
T/C (dose: 25.0 mg/kg/injection, schedule: Q01DX005 (ip), vehicle: other, evaluated on day 30): 94, 95, 96, 103 % of control
T/C (dose: 25.0 mg/kg/injection, schedule: Q01DX005 (ip), vehicle: saline with Tween-80, evaluated on day 20): 92 % of control
T/C (dose: 25.0 mg/kg/injection, schedule: Q01DX005 (ip), vehicle: saline with Tween-80, evaluated on day 30): 97, 100, 101, 104, 109, 155 % of control
survivor count (dose: 33.33 mg/kg/injection, schedule: Q03HX015 (ip), vehicle: DMSO): 0 of 6
survivor count (dose: 33.33 mg/kg/injection, schedule: Q03HX015 (ip), vehicle: Klucel (hydroxypropylcellulose) (HPC)): 0 of 6, 3 of 6, 4 of 6
T/C [9]: 113 % of control
survivor count [9]: 0 of 6
T/C [10]: 123 % of control
survivor count [10]: 0 of 5 and 0 of 6
T/C [11]: 108 [4 of 6 alive] (2×) and 112 % of control
survivor count [11]: 0 of 6 and 1 of 6
survivor count (dose: 50.0 mg/kg/injection, schedule: Q01DX005 (ip), vehicle: DMSO): 0 of 6, 1 of 6, 2 of 6, 3 of 6, 4 of 6
T/C (dose: 50.0 mg/kg/injection, schedule: Q01DX005 (ip), vehicle: Klucel (hydroxypropylcellulose) (HPC), evaluated on day 20): 97 % of control
T/C (dose: 50.0 mg/kg/injection, schedule: Q01DX005 (ip), vehicle: Klucel (hydroxypropylcellulose) (HPC), evaluated on day 30): 101, 103 [5 of 6 alive], 104 [5 of 6 alive], 111 % of control [4 of 6 alive]
T/C [12]: 94 and 114 % of control [5 of 6 alive]
survivor count [12]: 0 of 6, 3 of 6, 4 of 6
T/C [13]: 95 % of control [4 of 6 alive] (2×)
survivor count [13]: 0 of 6 and 1 of 6
T/C (dose: 50.0 mg/kg/injection, schedule: Q01DX005 (ip), vehicle: saline with Tween-80, evaluated on day 20): 108 % of control
T/C (dose: 50.0 mg/kg/injection, schedule: Q01DX005 (ip), vehicle: saline with Tween-80, evaluated on day 30): 97, 100 [5 of 6 alive], 102 [5 of 6 alive], 103, 106 [3 of 4 alive], 163, 177 % of control
survivor count (dose: 100.0 mg/kg/injection, schedule: Q01DX005 (ip), vehicle: DMSO): 0 of 6 (2×)
survivor count (dose: 100.0 mg/kg/injection, schedule: Q01DX005 (ip), vehicle: Klucel (hydroxypropylcellulose) (HPC)): 0 of 6 (2×) and 1 of 6
survivor count (dose: 100.0 mg/kg/injection, schedule: Q01DX005 (ip), vehicle: Klucel + Tween-80): 0 of 10
survivor count (dose: 100.0 mg/kg/injection, schedule: Q01DX005 (ip), vehicle: alcohol): 0 of 6 (2×)
survivor count (dose: 100.0 mg/kg/injection, schedule: Q01DX005 (ip), vehicle: other): 0 of 6 (2×)
T/C [14]: 155 and 174 % of control
survivor count [14]: 0 of 6 (2×)
survivor count (dose: 200.0 mg/kg/injection, schedule: Q01DX005 (ip), vehicle: DMSO): 0 of 6 (2×)
survivor count (dose: 200.0 mg/kg/injection, schedule: Q01DX005 (ip), vehicle: Klucel (hydroxypropylcellulose) (HPC)): 0 of 6 (2×)
survivor count (dose: 200.0 mg/kg/injection, schedule: Q01DX005 (ip), vehicle: Klucel + Tween-80): 0 of 10
survivor count (dose: 200.0 mg/kg/injection, schedule: Q01DX005 (ip), vehicle: alcohol): 0 of 6 (2×)
survivor count (dose: 200.0 mg/kg/injection, schedule: Q01DX005 (ip), vehicle: other): 0 of 6 (2×)
survivor count (dose: 200.0 mg/kg/injection, schedule: Q01DX005 (ip), vehicle: saline with Tween-80): 0 of 6 (2×) and 6 of 6
